The source of these data is doi:10.1101/2020.09.25.312678.

In this experiment the target is T1, WD repeat and SOCS box containing 1 (WSB1), wild type, FLAG-tagged (UniProt Q9Y6I7).
T1 sequence: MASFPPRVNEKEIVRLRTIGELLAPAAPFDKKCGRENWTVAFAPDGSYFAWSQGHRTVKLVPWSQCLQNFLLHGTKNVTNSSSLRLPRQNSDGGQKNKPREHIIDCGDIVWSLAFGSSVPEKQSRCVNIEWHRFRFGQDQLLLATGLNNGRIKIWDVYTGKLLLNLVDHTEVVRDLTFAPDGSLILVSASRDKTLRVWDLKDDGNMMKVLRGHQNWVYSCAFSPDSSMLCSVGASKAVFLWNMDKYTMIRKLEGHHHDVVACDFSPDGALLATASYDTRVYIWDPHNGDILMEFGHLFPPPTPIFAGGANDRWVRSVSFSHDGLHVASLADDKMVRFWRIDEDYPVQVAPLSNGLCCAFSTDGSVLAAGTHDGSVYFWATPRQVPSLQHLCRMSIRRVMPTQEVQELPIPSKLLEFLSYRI
Nature of the experiment: co-IP.

No constants are given. Whether binding was seen depends on the method and setting. In cells and extracts the contact can be indirect. Tags and fused reporters may be left off the sequences shown.

As to “AXIN1 deletion mutant D5 (Δ503-862), HA-tagged (domain or fragment)”, the binding entry is given as “no binding”.
